No constants are given. Whether binding was seen depends on the method and setting. In cells and extracts the contact can be indirect. Some results given as binding are weak or reduced against the parent protein; the word gives no strength.
Target: runt related transcription factor 1 (RUNX1) (rat (endogenous in neural stem cells)) (UniProt Q63046)
Test: co-IP; lysate of normal rat NSCs in RIPA buffer with protease inhibitor; incubated with anti-RUNX1 antibody or IgG and Protein A/G PLUS-agarose beads for 12 h at 4 °C; precipitate analysed by immunoblotting

Chains of the proteins cited; added tags and fusions are not shown.
UniProt Q63046: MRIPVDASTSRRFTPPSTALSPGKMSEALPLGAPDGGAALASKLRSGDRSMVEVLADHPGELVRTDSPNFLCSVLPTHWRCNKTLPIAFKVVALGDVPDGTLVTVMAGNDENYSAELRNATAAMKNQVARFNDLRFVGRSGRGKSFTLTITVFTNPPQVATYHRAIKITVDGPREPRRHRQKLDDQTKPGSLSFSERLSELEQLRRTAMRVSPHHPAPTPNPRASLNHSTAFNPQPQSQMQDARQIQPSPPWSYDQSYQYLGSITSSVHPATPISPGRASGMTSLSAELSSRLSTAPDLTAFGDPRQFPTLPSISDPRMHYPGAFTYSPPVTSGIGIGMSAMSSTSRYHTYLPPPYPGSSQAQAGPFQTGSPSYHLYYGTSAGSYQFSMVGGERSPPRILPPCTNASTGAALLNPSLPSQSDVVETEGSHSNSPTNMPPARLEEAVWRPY

B1: β-catenin (protein, UniProt Q9WU82 1-781)
chain: MATQADLMELDMAMEPDRKAAVSHWQQQSYLDSGIHSGATTTAPSLSGKGNPEEEDVDTSQVLYEWEQGFSQSFTQEQVADIDGQYAMTRAQRVRAAMFPETLDEGMQIPSTQFDAAHPTNVQRLAEPSQMLKHAVVNLINYQDDAELATRAIPELTKLLNDEDQVVVNKAAVMVHQLSKKEASRHAIMRSPQMVSAIVRTMQNTNDVETARCTAGTLHNLSHHREGLLAIFKSGGIPALVKMLGSPVDSVLFYAITTLHNLLLHQEGAKMAVRLAGGLQKMVALLNKTNVKFLAITTDCLQILAYGNQESKLIILASGGPQALVNIMRTYTYEKLLWTTSRVLKVLSVCSSNKPAIVEAGGMQALGPHLTDPSQRLVQNCLWTLRNLSDAATKQEGMEGLLGTLVQLLGSDDINVVTCAAGILSNLTCNNYKNKMMVCQVGGIEALVRTVLRAGDREDITEPAICALRHLTSRHQEAEMAQNAVRLHYGLPVVVKLLHPPSHWPLIKATVGLIRNLALCPANHAPLREQGAIPRLVQLLVRAHQDTQRRTSMGGTQQQFVEGVRMEEIVEGCTGALHILARDVHNRIVIRGLNTIPLFVQLLYSPIENIQRVAAGVLCELAQDKEAAEAIEAEGATAPLTELLHSRNEGVATYAAAVLFRMSEDKPQDYKKRLSVELTSSLFRTEPMAWNETADLGLDIGAQGEALGYRQDDPSYRSFHSGGYGQDALGMDPMMEHEMGGHHPGADYPVDGLPDLGHAQDLMDGLPPGDSNQLAWFDTDL
How did the binding turn out when B1 was run?
Its binding is “binds”.

Source: article PMC9526732
